Results are given in words; binding and its absence hold for the method and conditions named. Binding seen in cells or lysates may run through a third protein. Some results given as binding are weak or reduced against the parent protein; the word gives no strength.
B1: EMC3 (endogenous, rat cortical neurons) (protein, UniProt Q5U2V8 1-261)
chain: MAGPELLLDSNIRLWVVLPIVIITFFVGMIRHYVSILLQSDKKLTQEQVSDSQVLIRSRVLRENGKYIPKQSFLTRKYYFNNPEDGFFKKTKRKVVPPSPMTDPTMLTDMMKGNVTNVLPMILIGGWINMTFSGFVTTKVPFPLTLRFKPMLQQGIELLTLDASWVSSASWYFLNVFGLRSIYSLILGQDNAADQSRMMQEQMTGAAMAMPADTNKAFKTEWEALELTDHQWALDDVEEELMARDLHFEGMFKKELQTSIF
B2: calnexin (endogenous, rat cortical neurons) (protein, UniProt P35565 21-591)
chain: HDGHDDDMIDIEDDLDDVIEEVEDSKSKSDTSTPPSPKVTYKAPVPTGEVYFADSFDRGSLSGWILSKAKKDDTDDEIAKYDGKWEVDEMKETKLPGDKGLVLMSRAKHHAISAKLNKPFLFDTKPLIVQYEVNFQNGIECGGAYVKLLSKTSELNLDQFHDKTPYTIMFGPDKCGEDYKLHFIFRHKNPKTGVYEEKHAKRPDADLKTYFTDKKTHLYTLILNPDNSFEILVDQSVVNSGNLLNDMTPPVNPSREIEDPEDRKPEDWDERPKIADPDAVKPDDWDEDAPSKIPDEEATKPEGWLDDEPEYIPDPDAEKPEDWDEDMDGEWEAPQIANPKCESAPGCGVWQRPMIDNPNYKGKWKPPMIDNPNYQGIWKPRKIPNPDFFEDLEPFRMTPFSAIGLELWSMTSDIFFDNFIISGDRRVVDDWANDGWGLKKAADGAAEPGVVGQMLEAAEERPWLWVVYILTVALPVFLVILFCCSGKKQSNAMEYKKTDAPQPDVKDEEGKEEEKNKGDEEEEEEKLEEKQKSDAEEDGGTGSQDEEDSKPKAEEDEILNRSPRNRKPRRE

The chains behind the UniProt entries cited, without tags or fusion partners. Residues count along the entry.
UniProt P62813, residues 28-455: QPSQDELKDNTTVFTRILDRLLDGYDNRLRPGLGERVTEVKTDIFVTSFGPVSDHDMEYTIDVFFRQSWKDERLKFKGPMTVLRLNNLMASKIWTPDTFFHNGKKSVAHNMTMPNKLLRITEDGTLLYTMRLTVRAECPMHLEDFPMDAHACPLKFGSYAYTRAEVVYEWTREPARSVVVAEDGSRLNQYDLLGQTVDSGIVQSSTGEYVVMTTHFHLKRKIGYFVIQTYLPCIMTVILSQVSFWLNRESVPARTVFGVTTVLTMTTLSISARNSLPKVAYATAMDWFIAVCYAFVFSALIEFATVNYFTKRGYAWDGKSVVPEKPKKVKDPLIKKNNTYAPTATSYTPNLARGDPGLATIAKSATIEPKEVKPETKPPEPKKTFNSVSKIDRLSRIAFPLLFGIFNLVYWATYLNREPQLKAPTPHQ
UniProt Q66HD0, residues 22-804: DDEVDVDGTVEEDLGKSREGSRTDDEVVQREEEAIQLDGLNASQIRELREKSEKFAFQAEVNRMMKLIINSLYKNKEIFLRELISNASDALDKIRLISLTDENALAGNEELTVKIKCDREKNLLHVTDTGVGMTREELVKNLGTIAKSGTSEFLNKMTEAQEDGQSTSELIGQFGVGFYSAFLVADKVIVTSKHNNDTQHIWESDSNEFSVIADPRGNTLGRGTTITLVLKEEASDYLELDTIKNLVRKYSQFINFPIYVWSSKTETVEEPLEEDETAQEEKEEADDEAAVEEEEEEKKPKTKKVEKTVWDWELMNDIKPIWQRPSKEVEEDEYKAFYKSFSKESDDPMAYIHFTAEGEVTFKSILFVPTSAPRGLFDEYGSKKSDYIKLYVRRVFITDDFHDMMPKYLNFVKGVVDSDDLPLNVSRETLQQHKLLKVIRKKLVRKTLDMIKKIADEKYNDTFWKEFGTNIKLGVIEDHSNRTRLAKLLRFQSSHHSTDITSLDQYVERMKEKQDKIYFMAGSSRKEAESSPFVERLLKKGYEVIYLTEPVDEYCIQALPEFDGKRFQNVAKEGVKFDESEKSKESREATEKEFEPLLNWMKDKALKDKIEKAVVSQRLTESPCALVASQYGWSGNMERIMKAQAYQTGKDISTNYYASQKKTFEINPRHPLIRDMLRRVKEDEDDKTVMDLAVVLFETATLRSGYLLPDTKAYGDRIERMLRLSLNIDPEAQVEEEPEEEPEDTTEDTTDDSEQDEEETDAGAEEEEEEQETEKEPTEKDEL
UniProt Q00960, residues 27-1482: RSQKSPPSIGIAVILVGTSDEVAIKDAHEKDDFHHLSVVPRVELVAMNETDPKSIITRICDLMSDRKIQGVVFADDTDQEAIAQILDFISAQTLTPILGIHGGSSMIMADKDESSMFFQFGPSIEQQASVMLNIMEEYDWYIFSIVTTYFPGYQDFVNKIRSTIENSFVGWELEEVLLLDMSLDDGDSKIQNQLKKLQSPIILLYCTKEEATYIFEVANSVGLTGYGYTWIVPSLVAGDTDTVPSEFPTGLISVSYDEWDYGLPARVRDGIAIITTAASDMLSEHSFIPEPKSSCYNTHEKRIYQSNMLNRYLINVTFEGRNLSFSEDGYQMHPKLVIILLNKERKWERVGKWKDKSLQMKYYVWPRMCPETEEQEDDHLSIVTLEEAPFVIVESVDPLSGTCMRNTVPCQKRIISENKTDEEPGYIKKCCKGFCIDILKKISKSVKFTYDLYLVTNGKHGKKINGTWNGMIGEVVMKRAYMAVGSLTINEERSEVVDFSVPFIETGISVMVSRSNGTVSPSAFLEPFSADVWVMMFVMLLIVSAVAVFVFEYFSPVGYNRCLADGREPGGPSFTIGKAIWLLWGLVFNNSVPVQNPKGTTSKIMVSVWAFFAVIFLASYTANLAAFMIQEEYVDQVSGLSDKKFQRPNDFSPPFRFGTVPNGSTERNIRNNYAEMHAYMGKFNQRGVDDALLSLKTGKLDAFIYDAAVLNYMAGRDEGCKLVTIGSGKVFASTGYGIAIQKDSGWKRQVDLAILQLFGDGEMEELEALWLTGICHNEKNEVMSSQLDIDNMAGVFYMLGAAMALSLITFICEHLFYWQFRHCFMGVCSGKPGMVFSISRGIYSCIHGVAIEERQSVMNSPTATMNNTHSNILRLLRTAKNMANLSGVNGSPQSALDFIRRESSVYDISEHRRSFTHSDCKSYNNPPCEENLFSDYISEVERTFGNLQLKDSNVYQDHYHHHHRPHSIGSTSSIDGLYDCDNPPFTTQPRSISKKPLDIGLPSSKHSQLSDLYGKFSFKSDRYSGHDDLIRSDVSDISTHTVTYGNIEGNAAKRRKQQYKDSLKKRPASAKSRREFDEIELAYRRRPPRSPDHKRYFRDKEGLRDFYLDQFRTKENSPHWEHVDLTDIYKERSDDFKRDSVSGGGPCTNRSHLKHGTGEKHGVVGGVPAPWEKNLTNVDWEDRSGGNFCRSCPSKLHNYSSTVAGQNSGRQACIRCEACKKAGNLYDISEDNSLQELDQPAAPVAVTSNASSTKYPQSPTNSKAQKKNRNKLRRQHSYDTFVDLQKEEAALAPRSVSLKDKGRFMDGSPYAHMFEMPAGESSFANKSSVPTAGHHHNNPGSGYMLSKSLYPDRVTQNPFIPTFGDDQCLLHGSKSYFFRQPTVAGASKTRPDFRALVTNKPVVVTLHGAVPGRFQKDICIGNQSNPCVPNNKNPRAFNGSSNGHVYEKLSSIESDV
UniProt P46462: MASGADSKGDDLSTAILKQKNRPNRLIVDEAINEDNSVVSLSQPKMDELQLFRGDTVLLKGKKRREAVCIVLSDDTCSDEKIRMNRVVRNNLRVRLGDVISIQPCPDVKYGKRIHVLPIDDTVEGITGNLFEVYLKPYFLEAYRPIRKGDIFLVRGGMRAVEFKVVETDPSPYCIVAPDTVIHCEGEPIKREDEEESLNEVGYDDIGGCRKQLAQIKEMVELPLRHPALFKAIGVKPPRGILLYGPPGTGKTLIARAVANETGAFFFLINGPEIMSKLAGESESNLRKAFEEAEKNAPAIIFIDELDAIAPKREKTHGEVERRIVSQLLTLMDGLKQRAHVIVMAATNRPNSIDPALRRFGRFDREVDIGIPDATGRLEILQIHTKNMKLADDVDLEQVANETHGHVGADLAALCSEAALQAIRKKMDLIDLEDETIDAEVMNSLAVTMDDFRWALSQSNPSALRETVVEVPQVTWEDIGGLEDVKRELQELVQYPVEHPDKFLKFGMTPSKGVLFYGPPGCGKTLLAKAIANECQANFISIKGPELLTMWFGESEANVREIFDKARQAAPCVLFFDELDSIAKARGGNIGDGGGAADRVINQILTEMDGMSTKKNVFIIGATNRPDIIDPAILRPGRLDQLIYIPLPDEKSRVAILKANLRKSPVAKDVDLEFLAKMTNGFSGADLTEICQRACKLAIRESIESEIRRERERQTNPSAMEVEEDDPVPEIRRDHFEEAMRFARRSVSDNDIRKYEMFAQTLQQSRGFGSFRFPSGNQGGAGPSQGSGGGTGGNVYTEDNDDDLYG
UniProt P49582, residues 23-502: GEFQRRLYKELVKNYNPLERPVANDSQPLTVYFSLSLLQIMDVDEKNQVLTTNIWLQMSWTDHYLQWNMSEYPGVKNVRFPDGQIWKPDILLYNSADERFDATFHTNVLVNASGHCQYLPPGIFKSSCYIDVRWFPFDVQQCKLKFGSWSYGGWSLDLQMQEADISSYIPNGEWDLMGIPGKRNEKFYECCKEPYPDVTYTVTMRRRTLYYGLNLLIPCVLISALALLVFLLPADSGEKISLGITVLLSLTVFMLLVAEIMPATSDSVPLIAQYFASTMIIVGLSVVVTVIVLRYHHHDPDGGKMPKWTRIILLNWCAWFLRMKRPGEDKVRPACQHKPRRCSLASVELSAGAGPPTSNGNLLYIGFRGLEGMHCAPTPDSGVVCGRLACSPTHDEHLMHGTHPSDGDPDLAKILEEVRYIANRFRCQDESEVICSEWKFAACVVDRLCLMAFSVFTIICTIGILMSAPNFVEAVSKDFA
UniProt Q05941, residues 23-502: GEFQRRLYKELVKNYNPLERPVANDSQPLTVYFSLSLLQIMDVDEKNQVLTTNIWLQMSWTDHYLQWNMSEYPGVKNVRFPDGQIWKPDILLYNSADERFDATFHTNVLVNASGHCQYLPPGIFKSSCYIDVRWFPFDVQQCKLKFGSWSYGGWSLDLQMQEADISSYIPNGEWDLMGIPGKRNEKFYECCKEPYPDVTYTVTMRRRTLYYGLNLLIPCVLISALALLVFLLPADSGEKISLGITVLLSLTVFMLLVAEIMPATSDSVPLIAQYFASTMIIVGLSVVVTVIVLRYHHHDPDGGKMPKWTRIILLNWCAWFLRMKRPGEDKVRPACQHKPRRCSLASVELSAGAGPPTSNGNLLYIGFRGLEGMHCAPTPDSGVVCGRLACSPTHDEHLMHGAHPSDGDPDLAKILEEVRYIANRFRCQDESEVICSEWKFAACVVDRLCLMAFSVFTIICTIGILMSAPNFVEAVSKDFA

What was measured:
[1] = biological target: GABAA receptor α1 subunit (endogenous, rat cortical neurons) (rat (endogenous in primary cortical neurons)) (UniProt P62813); assay: co-IP; primary rat cortical neurons at DIV 12, lysate; immunoprecipitation of endogenous α1 with mouse anti-α1 antibody and protein A/G plus-agarose beads, 4°C; western blot; IgG as negative control
[2] = biological target: T1, EMC3 (endogenous, rat cortical neurons) (rat (endogenous in primary cortical neurons)) (UniProt Q5U2V8); assay: co-IP; primary rat cortical neurons, lysate; endogenous EMC3 or EMC6 pulled down; western blot for NMDAR and nAChR subunits
T1 sequence: B1 chain

[3] = biological target: T2, EMC3 (endogenous, mouse cortical homogenate) (mouse (endogenous in cortex of C57BL/6J mice)) (UniProt Q99KI3); assay: co-IP; mouse cortical homogenates from C57BL/6J mice of 8-10 weeks (25 mM Tris-HCl pH 7.5, 150 mM NaCl, 1% NP-40, 0.5% sodium deoxycholate, 0.1% SDS); endogenous proteins; western blot
T2 sequence: B1 chain

[4] = biological target: T3, EMC6 (endogenous, mouse cortical homogenate) (mouse (endogenous in cortex of C57BL/6J mice)) (UniProt Q9CQW0); assay: as above
T3 sequence: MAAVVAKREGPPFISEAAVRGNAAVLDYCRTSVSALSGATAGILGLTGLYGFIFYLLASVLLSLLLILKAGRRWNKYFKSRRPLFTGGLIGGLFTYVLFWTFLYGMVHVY

Molecule	binding [1]	binding [2]	further results
Grp94 (endogenous, rat cortical neurons) (from UniProt Q66HD0 22-804)	binds	–	–
NMDA receptor NR1 subunit (endogenous, rat cortical neurons) (from UniProt P35439 19-938)	–	binds	–
NMDA receptor NR2A subunit (endogenous, rat cortical neurons) (from UniProt Q00959 23-1464)	–	binds	–
NMDA receptor NR2B subunit (endogenous, rat cortical neurons) (from UniProt Q00960 27-1482)	–	binds	–
VCP (endogenous, rat cortical neurons) (from UniProt P46462 1-806)	binds	–	–
nicotinic acetylcholine receptor α7 subunit (endogenous, mouse cortical homogenate) (from UniProt P49582 23-502)	–	–	binding [3]: binds; binding [4]: binds
nicotinic acetylcholine receptor α7 subunit (endogenous, rat cortical neurons) (from UniProt Q05941 23-502)	–	binds	–
B1	binds	–	–
B2	binds	–	–

Source: article PMC9352529
